Source: the supplement of paper PMC10849652
The list shows a part of the results. Residues, ends and D or L forms follow the SMILES beside them. *: point of attachment. Cbz = O=C(OCc1ccccc1)*

Chains of the proteins cited; added tags and fusions are not shown. Lines headed by an entry give the natural chain unless they say otherwise; changes in a name come on top.
UniProt Q8IWP9: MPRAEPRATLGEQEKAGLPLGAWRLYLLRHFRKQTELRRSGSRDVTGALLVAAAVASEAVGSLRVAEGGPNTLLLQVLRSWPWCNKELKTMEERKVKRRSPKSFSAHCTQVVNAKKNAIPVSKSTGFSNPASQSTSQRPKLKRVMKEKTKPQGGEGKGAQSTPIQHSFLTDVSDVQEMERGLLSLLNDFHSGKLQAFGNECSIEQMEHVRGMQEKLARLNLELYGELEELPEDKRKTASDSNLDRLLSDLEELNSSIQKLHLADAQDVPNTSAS
UniProt Q8ND76: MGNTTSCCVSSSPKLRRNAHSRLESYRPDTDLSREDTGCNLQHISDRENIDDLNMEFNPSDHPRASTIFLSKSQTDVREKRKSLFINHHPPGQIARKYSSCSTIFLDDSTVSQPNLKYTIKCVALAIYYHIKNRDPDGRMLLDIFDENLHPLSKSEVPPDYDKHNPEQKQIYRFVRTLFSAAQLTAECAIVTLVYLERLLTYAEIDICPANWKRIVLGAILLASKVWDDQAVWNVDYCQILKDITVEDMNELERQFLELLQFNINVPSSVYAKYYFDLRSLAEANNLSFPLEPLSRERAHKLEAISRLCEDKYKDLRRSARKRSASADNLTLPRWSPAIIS
UniProt Q13185: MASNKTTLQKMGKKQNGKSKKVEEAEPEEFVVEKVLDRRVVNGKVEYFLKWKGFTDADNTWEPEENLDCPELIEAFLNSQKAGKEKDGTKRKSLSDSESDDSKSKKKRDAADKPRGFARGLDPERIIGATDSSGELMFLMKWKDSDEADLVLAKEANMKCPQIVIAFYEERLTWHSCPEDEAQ
UniProt A6NHX0: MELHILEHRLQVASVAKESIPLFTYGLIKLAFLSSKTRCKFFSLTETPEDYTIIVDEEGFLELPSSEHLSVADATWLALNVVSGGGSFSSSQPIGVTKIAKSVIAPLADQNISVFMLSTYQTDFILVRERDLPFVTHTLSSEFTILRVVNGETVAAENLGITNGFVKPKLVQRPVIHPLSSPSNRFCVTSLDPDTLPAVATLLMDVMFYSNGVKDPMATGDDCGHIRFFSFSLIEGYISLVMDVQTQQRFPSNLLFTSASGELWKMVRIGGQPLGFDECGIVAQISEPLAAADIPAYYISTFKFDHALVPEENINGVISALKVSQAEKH
UniProt O14618: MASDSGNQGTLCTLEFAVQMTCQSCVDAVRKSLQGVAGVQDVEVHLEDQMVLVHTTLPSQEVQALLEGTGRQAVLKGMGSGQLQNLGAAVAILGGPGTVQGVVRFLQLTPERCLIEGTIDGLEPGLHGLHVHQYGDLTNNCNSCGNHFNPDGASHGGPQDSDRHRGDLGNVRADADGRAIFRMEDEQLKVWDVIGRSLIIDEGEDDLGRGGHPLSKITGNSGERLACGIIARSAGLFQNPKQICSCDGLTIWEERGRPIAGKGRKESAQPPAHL
UniProt P13987: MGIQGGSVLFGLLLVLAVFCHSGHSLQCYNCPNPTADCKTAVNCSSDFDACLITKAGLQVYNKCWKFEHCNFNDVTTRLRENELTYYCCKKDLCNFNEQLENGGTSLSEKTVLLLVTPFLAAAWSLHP
UniProt Q5T0F9: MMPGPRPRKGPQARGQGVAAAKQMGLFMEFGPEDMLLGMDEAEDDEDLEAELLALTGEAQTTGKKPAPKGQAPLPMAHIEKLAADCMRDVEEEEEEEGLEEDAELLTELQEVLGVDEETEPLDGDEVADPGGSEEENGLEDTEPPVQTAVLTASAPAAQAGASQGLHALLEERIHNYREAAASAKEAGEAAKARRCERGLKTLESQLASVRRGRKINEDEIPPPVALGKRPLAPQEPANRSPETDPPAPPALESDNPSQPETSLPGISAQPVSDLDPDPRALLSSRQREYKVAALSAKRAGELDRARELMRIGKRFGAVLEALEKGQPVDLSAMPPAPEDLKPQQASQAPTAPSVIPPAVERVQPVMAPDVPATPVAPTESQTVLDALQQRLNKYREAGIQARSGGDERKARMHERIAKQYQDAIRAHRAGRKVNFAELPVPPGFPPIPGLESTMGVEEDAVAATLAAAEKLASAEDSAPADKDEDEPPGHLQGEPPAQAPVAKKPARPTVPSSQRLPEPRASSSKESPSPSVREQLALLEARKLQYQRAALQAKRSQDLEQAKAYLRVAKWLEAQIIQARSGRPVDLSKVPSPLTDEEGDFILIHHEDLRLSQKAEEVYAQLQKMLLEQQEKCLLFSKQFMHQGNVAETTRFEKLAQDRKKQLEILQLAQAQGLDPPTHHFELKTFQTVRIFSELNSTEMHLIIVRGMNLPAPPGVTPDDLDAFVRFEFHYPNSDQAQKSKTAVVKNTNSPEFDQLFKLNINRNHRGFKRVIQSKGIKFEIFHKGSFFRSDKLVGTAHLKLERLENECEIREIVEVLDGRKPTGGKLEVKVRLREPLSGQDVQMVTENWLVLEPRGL
UniProt P20248, whole entry, looked up: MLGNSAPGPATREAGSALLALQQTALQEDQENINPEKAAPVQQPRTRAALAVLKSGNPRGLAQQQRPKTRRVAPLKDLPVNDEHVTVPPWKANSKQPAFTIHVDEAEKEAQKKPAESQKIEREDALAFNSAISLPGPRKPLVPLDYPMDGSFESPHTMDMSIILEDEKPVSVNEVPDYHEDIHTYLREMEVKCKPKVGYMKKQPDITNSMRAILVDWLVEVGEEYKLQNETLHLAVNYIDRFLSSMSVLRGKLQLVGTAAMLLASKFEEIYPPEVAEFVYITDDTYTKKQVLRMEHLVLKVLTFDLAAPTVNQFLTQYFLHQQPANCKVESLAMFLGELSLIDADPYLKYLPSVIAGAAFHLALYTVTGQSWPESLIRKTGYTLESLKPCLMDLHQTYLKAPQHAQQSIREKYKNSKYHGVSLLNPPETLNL
UniProt P83916, whole entry, looked up: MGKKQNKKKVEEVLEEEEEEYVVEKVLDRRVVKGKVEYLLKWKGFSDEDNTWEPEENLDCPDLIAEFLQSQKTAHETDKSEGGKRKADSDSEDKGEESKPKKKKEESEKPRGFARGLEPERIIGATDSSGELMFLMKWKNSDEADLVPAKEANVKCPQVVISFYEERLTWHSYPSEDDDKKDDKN
UniProt Q96MW1: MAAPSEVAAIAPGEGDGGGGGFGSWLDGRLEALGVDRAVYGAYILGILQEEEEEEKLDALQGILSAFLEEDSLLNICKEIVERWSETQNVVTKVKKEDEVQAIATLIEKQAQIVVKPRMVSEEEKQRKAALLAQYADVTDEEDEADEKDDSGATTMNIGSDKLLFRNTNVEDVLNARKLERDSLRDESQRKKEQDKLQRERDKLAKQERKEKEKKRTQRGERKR
UniProt Q99832: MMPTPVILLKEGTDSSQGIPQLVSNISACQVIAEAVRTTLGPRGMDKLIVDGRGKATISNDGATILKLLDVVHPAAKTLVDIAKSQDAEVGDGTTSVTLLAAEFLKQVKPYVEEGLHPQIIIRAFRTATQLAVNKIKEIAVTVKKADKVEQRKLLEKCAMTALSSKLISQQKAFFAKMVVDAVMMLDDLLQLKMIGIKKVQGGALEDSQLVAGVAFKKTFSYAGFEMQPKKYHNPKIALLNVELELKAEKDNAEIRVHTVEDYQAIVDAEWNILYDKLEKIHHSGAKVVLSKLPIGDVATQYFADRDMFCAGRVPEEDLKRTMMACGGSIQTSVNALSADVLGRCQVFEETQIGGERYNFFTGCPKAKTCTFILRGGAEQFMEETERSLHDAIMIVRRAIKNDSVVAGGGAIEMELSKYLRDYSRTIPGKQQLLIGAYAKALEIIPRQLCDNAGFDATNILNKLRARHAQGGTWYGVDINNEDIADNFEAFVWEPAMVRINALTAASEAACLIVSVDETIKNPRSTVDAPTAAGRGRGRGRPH
UniProt P48509: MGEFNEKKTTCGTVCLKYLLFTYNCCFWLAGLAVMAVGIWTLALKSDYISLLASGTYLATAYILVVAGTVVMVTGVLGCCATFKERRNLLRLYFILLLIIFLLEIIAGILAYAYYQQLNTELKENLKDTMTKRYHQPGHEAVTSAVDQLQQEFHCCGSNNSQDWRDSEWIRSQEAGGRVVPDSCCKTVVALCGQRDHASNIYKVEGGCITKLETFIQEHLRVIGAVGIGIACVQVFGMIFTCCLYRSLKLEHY
UniProt Q9BRT8: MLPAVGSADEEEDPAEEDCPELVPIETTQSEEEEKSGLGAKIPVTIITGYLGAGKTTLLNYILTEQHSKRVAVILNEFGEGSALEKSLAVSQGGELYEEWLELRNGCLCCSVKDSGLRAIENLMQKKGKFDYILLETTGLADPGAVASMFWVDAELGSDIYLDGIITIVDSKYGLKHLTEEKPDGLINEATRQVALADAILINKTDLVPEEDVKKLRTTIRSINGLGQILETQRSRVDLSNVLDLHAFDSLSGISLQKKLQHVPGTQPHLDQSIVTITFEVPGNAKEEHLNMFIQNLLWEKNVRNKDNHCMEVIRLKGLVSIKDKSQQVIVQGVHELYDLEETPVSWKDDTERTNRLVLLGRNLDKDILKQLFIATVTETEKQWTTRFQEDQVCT
UniProt Q96BQ5: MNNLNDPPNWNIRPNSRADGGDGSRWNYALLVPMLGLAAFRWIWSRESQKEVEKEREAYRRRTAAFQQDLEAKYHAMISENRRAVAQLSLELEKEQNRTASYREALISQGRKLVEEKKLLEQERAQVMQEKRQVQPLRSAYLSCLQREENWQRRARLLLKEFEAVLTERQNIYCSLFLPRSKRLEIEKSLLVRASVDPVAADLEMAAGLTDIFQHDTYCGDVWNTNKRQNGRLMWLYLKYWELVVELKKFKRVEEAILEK
UniProt Q9UJX2, whole entry, looked up: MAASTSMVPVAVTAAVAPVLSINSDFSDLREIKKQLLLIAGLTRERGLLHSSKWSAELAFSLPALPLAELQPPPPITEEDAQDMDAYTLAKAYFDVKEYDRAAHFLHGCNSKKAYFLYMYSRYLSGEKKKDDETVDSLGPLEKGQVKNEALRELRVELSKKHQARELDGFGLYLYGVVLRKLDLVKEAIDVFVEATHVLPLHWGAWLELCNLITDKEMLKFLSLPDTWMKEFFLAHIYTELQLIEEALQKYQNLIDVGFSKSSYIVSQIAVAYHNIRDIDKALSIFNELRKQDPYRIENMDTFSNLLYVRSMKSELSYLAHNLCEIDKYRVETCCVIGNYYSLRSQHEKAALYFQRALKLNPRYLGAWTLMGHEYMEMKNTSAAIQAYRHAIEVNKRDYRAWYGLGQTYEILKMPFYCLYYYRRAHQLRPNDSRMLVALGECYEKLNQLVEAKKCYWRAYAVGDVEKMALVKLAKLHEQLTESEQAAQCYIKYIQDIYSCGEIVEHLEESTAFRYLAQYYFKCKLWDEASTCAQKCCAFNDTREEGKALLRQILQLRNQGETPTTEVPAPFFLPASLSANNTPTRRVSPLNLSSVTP
UniProt Q2TAC2: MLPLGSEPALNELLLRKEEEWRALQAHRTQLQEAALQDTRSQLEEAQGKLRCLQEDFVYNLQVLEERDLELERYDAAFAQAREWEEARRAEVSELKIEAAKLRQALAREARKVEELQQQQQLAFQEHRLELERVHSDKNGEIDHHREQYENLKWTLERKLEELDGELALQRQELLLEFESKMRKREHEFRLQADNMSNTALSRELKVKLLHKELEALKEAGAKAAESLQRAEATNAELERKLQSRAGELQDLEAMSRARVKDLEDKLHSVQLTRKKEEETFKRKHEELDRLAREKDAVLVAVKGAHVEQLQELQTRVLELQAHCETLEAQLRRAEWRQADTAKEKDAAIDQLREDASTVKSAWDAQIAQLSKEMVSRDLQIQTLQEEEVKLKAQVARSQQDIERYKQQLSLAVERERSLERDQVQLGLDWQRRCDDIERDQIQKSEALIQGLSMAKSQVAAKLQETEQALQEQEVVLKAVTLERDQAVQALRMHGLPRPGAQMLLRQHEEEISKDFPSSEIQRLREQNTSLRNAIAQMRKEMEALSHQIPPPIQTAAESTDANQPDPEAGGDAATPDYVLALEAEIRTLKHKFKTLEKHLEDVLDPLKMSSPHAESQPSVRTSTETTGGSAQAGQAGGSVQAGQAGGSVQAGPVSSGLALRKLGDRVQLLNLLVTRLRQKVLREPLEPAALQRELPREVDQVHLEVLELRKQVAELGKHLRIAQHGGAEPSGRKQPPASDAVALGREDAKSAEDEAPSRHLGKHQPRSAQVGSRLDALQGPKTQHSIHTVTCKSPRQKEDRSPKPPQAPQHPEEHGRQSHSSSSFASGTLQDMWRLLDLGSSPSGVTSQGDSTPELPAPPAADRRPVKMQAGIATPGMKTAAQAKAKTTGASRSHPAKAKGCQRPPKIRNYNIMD

How the values were obtained:
Experiment in all cases: log2 fold change, soluble protein after heating vs DMSO (PISA); higher = thermal stabilisation; K562 cells, 10 uM, 30 min; active = over 0.2 and 3.5 SD of the protein, either way, in both replicates (recomputed)
IRAK-1-4 Inhibitor I = compound: C1COCCN1CCN2C3=CC=CC=C3N=C2NC(=O)C4=CC(=CC=C4)[N+](=O)[O-] [IRAK-1-4 Inhibitor I]
In short: (§1)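 For each measurement, 10 μM compound was applied for 30 min to K562 cells at 2×10^6 cells/mL. Aliquots were heated for 3 min across 48°C-58°C, pooled, and extracted in PBS with 0.5% NP-40 at 4°C; the supernatant after 21,000xg for 90 min was soluble protein. This was quantified by TMTpro 16plex LC-MS/MS with channel sums equalised, and thermal stability was reported relative to control samples from duplicates, on a log2 fold-change scale.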

ibrutinib = compound: C=CC(=O)N1CCC[C@@H](n2nc(-c3ccc(Oc4ccccc4)cc3)c3c(N)ncnc32)C1 [ibrutinib]
In short: as §1

[1] = compound: CC(=O)c1cnc2ccc(-c3cc(Cl)c(O)c(Cl)c3)nc2c1N[C@H]1CC[C@H](CN(C)C)CC1
In short: as §1

ralimetinib = compound: CC(C)(C)Cn1c(N)nc2ccc(-c3[nH]c(C(C)(C)C)nc3-c3ccc(F)cc3)nc21 [ralimetinib]
In short: as §1

[2] = compound: CC(C)(O)CC(=O)NCCn1ccc2ncnc(Nc3ccc(Oc4cccc(C(F)(F)F)c4)c(Cl)c3)c21
In short: as §1

[3] = compound: CC(C)C1=C2N=C(C=C(N2N=C1)NCC3=CC=CC=C3)NCCCCCCN
In short: as §1

[4] = compound: CC(C)C[C@@H](C=O)NC(=O)[C@H](CC(C)C)NC(=O)[C@H](CC(C)C)NC(=O)OCc1ccccc1
In short: as §1

pinometostat = compound: CC(C)N(C[C@H]1O[C@@H](n2cnc3c(N)ncnc32)[C@H](O)[C@@H]1O)[C@H]1C[C@@H](CCc2nc3cc(C(C)(C)C)ccc3[nH]2)C1 [pinometostat]
In short: as §1

[5] = compound: CC1=C(C(CC(=O)N1)C2=CC=C(C=C2)C(F)(F)F)C(=O)NC3=C(C=C4C(=C3)C=NN4)F
In short: as §1

[6] = compound: CC1=C(C2=C(C=C1)C(=O)C3=CC=CC=C3N2CCCN)C
In short: as §1

[7] = compound: CC1=C(C=C(C=C1)NC(=O)C2=CC(=CC=C2)C(C)(C)C#N)NC3=CC4=C(C=C3)N=CN(C4=O)C
In short: as §1

[8] = compound: CC1=C(C=C(C=C1)NC(=O)C2=CC(=CC=C2)N(C)C)NC(=O)C3=CC=C(C=C3)O
In short: as §1

[9] = compound: CC1=CC=C(C=C1)SC2=C3C=C(SC3=CN=C2)C(=O)N
In short: as §1

[10] = compound: CC1=NC(=CC=C1)C2=C(N=C(N2)C(C)(C)C)C3=CC4=NC=CN=C4C=C3
In short: as §1

Nexturastat A = compound: CCCCN(Cc1ccc(C(=O)NO)cc1)C(=O)Nc1ccccc1 [Nexturastat A]
In short: as §1

vemurafenib = compound: CCCS(=O)(=O)Nc1ccc(F)c(C(=O)c2c[nH]c3ncc(-c4ccc(Cl)cc4)cc23)c1F [vemurafenib]
In short: as §1

[11] = compound: CCCS(=O)(=O)Nc1ccc(F)c(C(=O)c2c[nH]c3ncc(Cl)cc23)c1F
In short: as §1

[12] = compound: CCCc1cc(C)[nH]c(=O)c1CNC(=O)c1cc(-c2ccnc(N3CCN(C)CC3)c2)cc2c1cnn2C(C)C
In short: as §1

givinostat = compound: CCN(CC)Cc1ccc2cc(COC(=O)Nc3ccc(C(=O)NO)cc3)ccc2c1 [givinostat]
In short: as §1

barasertib = compound: CCN(CCCOc1ccc2c(Nc3cc(CC(=O)Nc4cccc(F)c4)[nH]n3)ncnc2c1)CCOP(=O)(O)O [barasertib]
In short: as §1

Measured: log2 fold change

CCDC28A (UniProt Q8IWP9)
inactive: IRAK-1-4 Inhibitor I 0.122 | ibrutinib -0.008 | [1] 0.006 | ralimetinib 0.003 | [2] 0.151 | [3] -0.019 | [4] 0.082 | pinometostat 0.125 | [5] -0.013 | [6] 0.162 | [7] -0.113 | [8] 0.03 | [9] -0.008 | [10] -0.04 | Nexturastat A -0.214 | vemurafenib -0.084 | [11] -0.013 | [12] 0.049 | givinostat 0.01 | barasertib -0.027

CCNY (UniProt Q8ND76)
inactive: IRAK-1-4 Inhibitor I -0.111 | ibrutinib 0.113 | [1] 0.127 | ralimetinib 0.084 | [2] -0.07 | [3] 0.019 | [4] -0.036 | pinometostat 0.016 | [5] -0.045 | [6] 0.237 | [7] 0.262 | [8] -0.056 | [9] -0.008 | [10] 0.004 | Nexturastat A 0.006 | vemurafenib -0.047 | [11] 0.037 | givinostat -0.054 | barasertib -0.139

CBX3 (UniProt Q13185)
inactive: IRAK-1-4 Inhibitor I 0.004 | ibrutinib 0.008 | [1] -0.059 | ralimetinib -0.003 | [2] -0.009 | [3] -0.106 | [4] 0.016 | pinometostat -0.102 | [5] 0.015 | [6] -0.182 | [7] 0.129 | [8] -0.005 | [9] -0.089 | [10] 0.121 | Nexturastat A -0.032 | vemurafenib 0.027 | [11] -0.04 | [12] 0.25 | givinostat -0.093 | barasertib 0.03

CASTOR2 (UniProt A6NHX0)
inactive: IRAK-1-4 Inhibitor I 0.078 | ibrutinib 0.046 | [1] 0.008 | ralimetinib -0.006 | [2] 0.016 | [3] 0.031 | [4] 0.046 | pinometostat -0.013 | [6] 0.019 | [7] -0.015 | [8] -0.01 | [9] 0.037 | [10] 0.033 | Nexturastat A -0.085 | vemurafenib 0.046 | [12] -0.021 | givinostat 0.041 | barasertib 0.01
active: [11] -0.465

CCS (UniProt O14618)
inactive: IRAK-1-4 Inhibitor I 0.036 | ibrutinib -0.022 | [1] -0.07 | ralimetinib 0.01 | [2] -0.051 | [3] -0.013 | [4] 0.012 | pinometostat -0.041 | [5] -0.009 | [6] 0.064 | [7] -0.063 | [8] -0.017 | [9] 0.025 | [10] 0.012 | Nexturastat A -0.055 | vemurafenib -0.036 | [11] 0 | [12] -0.033 | givinostat -0.083 | barasertib 0.034

CD59 isoform 2 (UniProt P13987)
inactive: IRAK-1-4 Inhibitor I -0.018 | ibrutinib 0.06 | [1] 0.015 | ralimetinib 0.112 | [2] 0.208 | [3] 0.07 | [4] -0.001 | pinometostat 0.021 | [5] 0.008 | [6] 0.065 | [7] 0.054 | [8] -0.103 | [9] -0.097 | [10] -0.057 | Nexturastat A 0.146 | vemurafenib -0.038 | [11] -0.155 | [12] 0.009 | givinostat -0.017 | barasertib -0.07

CC2D1B isoform 2 (UniProt Q5T0F9)
inactive: IRAK-1-4 Inhibitor I 0.008 | ibrutinib -0.002 | [1] -0.063 | ralimetinib 0.065 | [2] 0.004 | [3] -0.134 | [4] 0.002 | pinometostat 0.084 | [5] -0.028 | [6] 0.023 | [7] -0.007 | [8] -0.01 | [9] -0.012 | [10] -0.017 | Nexturastat A 0.089 | vemurafenib 0.148 | [11] 0.009 | [12] 0.03 | givinostat 0.032 | barasertib 0.055

CCNA2 (UniProt P20248)
inactive: IRAK-1-4 Inhibitor I 0.031 | ibrutinib 0 | [1] -0.08 | ralimetinib 0.001 | [2] -0.004 | [3] -0.008 | [4] -0.013 | pinometostat -0.017 | [5] 0.011 | [6] 0.012 | [7] 0.027 | [8] -0.003 | [9] 0.014 | [10] -0.005 | Nexturastat A 0.002 | vemurafenib 0.036 | [11] 0.052 | [12] -0.01 | givinostat 0.011 | barasertib 0.012

CBX1 (UniProt P83916)
inactive: IRAK-1-4 Inhibitor I -0.105 | ibrutinib -0.001 | [1] -0.038 | ralimetinib -0.054 | [2] 0.013 | [3] 0.034 | [4] -0.007 | pinometostat -0.143 | [7] 0.049 | [8] -0.005 | [9] 0.04 | Nexturastat A -0.026 | vemurafenib 0.07 | [11] 0.057 | [12] -0.011 | givinostat -0.042 | barasertib -0.009
active: [6] -0.288 | [10] 0.318

CCDC43 (UniProt Q96MW1)
inactive: IRAK-1-4 Inhibitor I 0.017 | ibrutinib -0.046 | [1] 0.116 | ralimetinib -0.034 | [2] 0 | [3] 0.045 | [4] 0.043 | pinometostat -0.079 | [5] 0.04 | [6] -0.029 | [7] -0.041 | [8] 0.022 | [9] 0.019 | [10] 0.035 | Nexturastat A -0.078 | vemurafenib 0.004 | [11] 0.024 | [12] -0.033 | givinostat 0.02 | barasertib 0.03

2 consecutive entries out of the list so far, quoted:
CCDC28A (UniProt Q8IWP9)
inactive: IRAK-1-4 Inhibitor I 0.122 | ibrutinib -0.008 | [1] 0.006 | ralimetinib 0.003 | [2] 0.151 | [3] -0.019 | [4] 0.082 | pinometostat 0.125 | [5] -0.013 | [6] 0.162 | [7] -0.113 | [8] 0.03 | [9] -0.008 | [10] -0.04 | Nexturastat A -0.214 | vemurafenib -0.084 | [11] -0.013 | [12] 0.049 | givinostat 0.01 | barasertib -0.027

CCNY (UniProt Q8ND76)
inactive: IRAK-1-4 Inhibitor I -0.111 | ibrutinib 0.113 | [1] 0.127 | ralimetinib 0.084 | [2] -0.07 | [3] 0.019 | [4] -0.036 | pinometostat 0.016 | [5] -0.045 | [6] 0.237 | [7] 0.262 | [8] -0.056 | [9] -0.008 | [10] 0.004 | Nexturastat A 0.006 | vemurafenib -0.047 | [11] 0.037 | givinostat -0.054 | barasertib -0.139

Further entries:

CCT7 (UniProt Q99832)
inactive: IRAK-1-4 Inhibitor I 0.004 | ibrutinib 0 | [1] 0.015 | ralimetinib 0.004 | [2] -0.009 | [3] 0.03 | [4] -0.019 | pinometostat -0.029 | [5] 0.072 | [6] 0.006 | [7] 0.025 | [8] 0.006 | [9] 0 | [10] 0.02 | Nexturastat A -0.106 | vemurafenib -0.007 | [11] -0.017 | [12] 0.024 | givinostat -0.059 | barasertib -0.007

CD151 (UniProt P48509)
inactive: IRAK-1-4 Inhibitor I -0.077 | ibrutinib 0.012 | [1] 0.025 | ralimetinib 0.013 | [2] -0.021 | [3] -0.017 | [4] 0.027 | pinometostat -0.054 | [6] 0.083 | [7] -0.125 | [8] -0.057 | [9] -0.002 | [10] 0.027 | Nexturastat A -0.159 | vemurafenib -0.103 | [11] 0 | [12] -0.21 | givinostat 0.018 | barasertib -0.052

CBWD1 (UniProt Q9BRT8)
inactive: IRAK-1-4 Inhibitor I -0.037 | ibrutinib 0.107 | [1] -0.002 | ralimetinib 0.134 | [2] -0.099 | [3] -0.259 | [4] 0.199 | pinometostat 0.126 | [5] -0.033 | [6] -0.007 | [7] 0.011 | [8] -0.064 | [9] -0.066 | [10] -0.05 | Nexturastat A 0.097 | vemurafenib 0.053 | [11] 0.139 | [12] 0.058 | givinostat 0.013 | barasertib -0.037

CCDC127 (UniProt Q96BQ5)
inactive: IRAK-1-4 Inhibitor I 0.063 | ibrutinib -0.004 | [1] -0.007 | ralimetinib 0.006 | [2] -0.115 | [3] 0.049 | [4] -0.081 | pinometostat -0.096 | [5] 0.006 | [6] -0.031 | [7] 0.056 | [8] 0.176 | [9] -0.047 | [10] -0.017 | Nexturastat A -0.05 | vemurafenib 0 | [11] -0.018 | [12] -0.069 | givinostat -0.013 | barasertib 0.057

CDC23 (UniProt Q9UJX2)
inactive: IRAK-1-4 Inhibitor I -0.022 | ibrutinib 0.217 | [1] -0.028 | ralimetinib 0 | [2] 0.016 | [3] -0.049 | [4] 0.062 | pinometostat 0.077 | [5] -0.018 | [6] -0.08 | [7] -0.069 | [8] -0.009 | [9] 0.014 | [10] 0.006 | Nexturastat A 0.032 | vemurafenib -0.015 | [11] 0.004 | [12] 0.012 | givinostat -0.003 | barasertib 0.013

CCDC57 (UniProt Q2TAC2)
inactive: IRAK-1-4 Inhibitor I 0.067 | ibrutinib -0.021 | ralimetinib 0.005 | [2] -0.007 | [3] 0.041 | [4] 0.05 | pinometostat -0.04 | [6] 0.012 | [7] 0.004 | [8] 0.02 | [9] 0.032 | [10] -0.01 | Nexturastat A -0.049 | vemurafenib 0 | [11] 0.013 | [12] -0.047 | givinostat 0.027 | barasertib 0.015
